Laboratory results published in article PMC4571087.
These are yes or no findings as the source states them, for the method shown. Some results given as binding are weak or reduced against the parent protein; the word gives no strength. Where a sequence is shown, tags or fusion partners need not be part of it.

Sequences of proteins named here, by UniProt entry; tags and fusion partners are left off.
UniProt P38682: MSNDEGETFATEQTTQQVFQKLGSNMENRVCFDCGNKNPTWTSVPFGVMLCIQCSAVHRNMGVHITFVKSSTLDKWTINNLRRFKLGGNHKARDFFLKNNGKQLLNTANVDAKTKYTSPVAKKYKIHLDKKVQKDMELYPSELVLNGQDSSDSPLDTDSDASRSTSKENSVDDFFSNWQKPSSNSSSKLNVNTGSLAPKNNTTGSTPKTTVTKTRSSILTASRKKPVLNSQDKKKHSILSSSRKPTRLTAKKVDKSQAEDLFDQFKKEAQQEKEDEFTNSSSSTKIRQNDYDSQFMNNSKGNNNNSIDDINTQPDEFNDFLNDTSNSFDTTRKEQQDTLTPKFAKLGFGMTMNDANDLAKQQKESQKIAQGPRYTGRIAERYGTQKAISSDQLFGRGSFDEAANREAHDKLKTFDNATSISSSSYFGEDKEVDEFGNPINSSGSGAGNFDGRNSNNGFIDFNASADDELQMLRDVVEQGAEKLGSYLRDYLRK

Biological target: Glo3 fused to LexA (bait, pEG202) (S. cerevisiae) (UniProt P38682)
Experiment: two-hybrid; Glo3 fused to LexA as bait (pEG202), target proteins fused to B42 (pJG4-5); beta-galactosidase assay, Miller units, triplicates

B1: Erg3 fused to B42 (prey, pJG4-5) (protein, UniProt P32353 1-365)
chain: MDLVLEVADHYVLDDLYAKVLPASLAANIPVKWQKLLGLNSGFSNSTILQETLNSKNAVKECRRFYGQVPFLFDMSTTSFASLLPRSSILREFLSLWVIVTIFGLLLYLFTASLSYVFVFDKSIFNHPRYLKNQMAMEIKLAVSAIPWMSMLTVPWFVMELNGHSKLYMKIDYENHGVRKLIIEYFTFIFFTDCGVYLAHRWLHWPRVYRALHKPHHKWLVCTPFASHSFHPVDGFLQSISYHIYPLILPLHKVSYLILFTFVNFWTVMIHDGQYLSNNPAVNGTACHTVHHLYFNYNYGQFTTLWDRLGGSYRRPDDSLFDPKLRDAKETWDAQVKEVEHFIKEVEGDDNDRIYENDPNTKKNN
binding: binds
